Counter-ions that a name gives are not always drawn. The list shows a part of the results. Single values are uncertain, as repeats are few or missing.
The molecules below were run on hsa-miR-132-3p (assay: miR-132-3p level in NGN2-iNs after compound treatment (TMM-normalised, ComBat batch-corrected) (batch-corrected normalised expression (arbitrary units)); higher = higher miR-132-3p expression). Conditions: 10 µM; 24 h; human iPSC-derived NGN2 neurons (BR43).

Compound | miR-132-3p level in NGN2-iNs
NC(=O)c1noc([C@H](CCCC2CCCCC2)CC(=O)NO)n1 | -0.835
Cc1cccc(-c2[nH]c(C(C)(C)C)nc2-c2ccc3nccnc3c2)n1 | 0.163
Cc1cnc(Nc2ccc(N3CCN(C)CC3)cc2)nc1Nc1cccc(S(=O)(=O)NC(C)(C)C)c1 | -0.0745
O=C1NC(=O)/C(=C/c2ccc(-c3ccc(F)cc3O)o2)S1 | -0.378
CC(C)CCN1c2nc(Nc3cc(F)c(O)c(F)c3)ncc2N(C)C(=O)C1C (stereo not given) | -0.683
C[C@]12C=CC(=O)C=C1CC[C@@H]1[C@@H]2[C@@H](O)C[C@@]2(C)[C@H]1CC[C@]2(O)C(=O)CO [Prednisolone] | -0.159
O=c1ncn2nc(Sc3ccc(F)cc3F)ccc2c1-c1c(Cl)cccc1Cl | 0.635
O=c1[nH]cc(F)c(=O)[nH]1 [Fluorouracil (5-Fluoracil, 5-FU)] | 0.000427
CS(=O)(=O)c1ccc([C@@H](O)[C@@H](CO)NC(=O)C(Cl)Cl)cc1 [Thiamphenicol] | 0.557
CC(=O)Oc1cc(C(F)(F)F)ccc1C(=O)O [Triflusal] | -0.289
N=c1ccn2c(n1)O[C@H]1[C@H](O)[C@@H](CO)O[C@H]12 [Cyclocytidine HCl] | 0.991
CNC(=O)c1ccc2cc([C@@]3(O)CCn4cncc43)ccc2c1 [Orteronel] | 0.0484
C[C@@H](c1ncncc1F)[C@](O)(Cn1cncn1)c1ccc(F)cc1F [Voriconazole] | 0.574
Cc1c(NC(=O)c2ccc(C(C)(C)C)cc2)cccc1-c1cn(C)c(=O)c(Nc2ccc(C(=O)N3CCOCC3)cc2)n1 | -1.43
O=C(O)Cc1ccccc1Nc1c(Cl)cccc1Cl [Diclofenac Diethylamine] | -1.08
O=C(O)Cc1ccccc1Nc1c(Cl)cccc1Cl [Diclofenac Sodium] | 0.104
O=C(O)Cc1ccccc1Nc1c(Cl)cccc1Cl [Diclofenac Potassium] | 1.15
COc1cc(N2CCN(C)CC2)ccc1Nc1nccc(-c2cn(C)c3cnccc23)n1 | -0.419
CC(C)NC[C@H](O)COc1ccc(CCOCC2CC2)cc1 [Levobetaxolol HCl] | 0.0538
COC(=O)C1=C(C)NC(C)=C(C(=O)OC)C1c1ccccc1[N+](=O)[O-] [Nifedipine] | -1.19
COC(=O)N1CCN(Cc2cccc(NC(=O)Nc3ccc(C)nc3)c2F)CC1 | 0.369
Nc1ccc(O)c(C(=O)O)c1 [Mesalamine] | -1.07
Nc1ccc(S(=O)(=O)Nc2ncccn2)cc1 [Sulfadiazine] | -0.0709
CCCC(C)NC(=O)c1ccc(Cl)c(Cl)c1 (stereo not given) | -0.82
C#C[C@]1(OC(C)=O)CC[C@H]2[C@@H]3CCC4=C[C@@H](OC(C)=O)CC[C@@H]4[C@H]3CC[C@@]21C [Ethynodiol diacetate] | -0.829

Compound | miR-132-3p level in NGN2-iNs
CC(C)[C@H](C(=O)Nc1ccc(C(=O)NO)cc1)c1ccccc1 | -0.635
C#C[C@]1(O)CC[C@H]2[C@@H]3CCC4=CC(=O)CC[C@@H]4[C@H]3CC[C@@]21C [Norethindrone] | 0.779
C=CCc1cc(OC)c(O)c(C(=O)NCCO)c1 [Alibendol] | -0.662
CCc1ccc(CCOc2ccc(CC3SC(=O)NC3=O)cc2)nc1 (stereo not given) [Pioglitazone] | -0.0945
CCc1ccc(CCOc2ccc(CC3SC(=O)NC3=O)cc2)nc1 (stereo not given) [Pioglitazone HCl] | -1.05
CNC[C@@H](O)c1ccc(O)c(O)c1 [L-Adrenaline] | 0.87
Cc1ccc(N(CC2=NCCN2)c2cccc(O)c2)cc1 [Phentolamine Mesylate] | 1.92
Cc1c(Cl)cccc1Nc1ccccc1C(=O)O [Tolfenamic Acid] | 0.865
COc1cc(F)c(C(C)C)cc1-c1ccc(C(F)(F)F)cc1CN1C(=O)O[C@H](c2cc(C(F)(F)F)cc(C(F)(F)F)c2)[C@@H]1C [Anacetrapib (MK-0859)] | 0.0126
CO[C@H]1/C=C/O[C@@]2(C)Oc3c(C)c(O)c4c(O)c(c(/C=N/N5CCN(C)CC5)c(O)c4c3C2=O)NC(=O)/C(C)=C\C=C\[C@H](C)[C@H](O)[C@@H](C)[C@@H](O)[C@@H](C)[C@H](OC(C)=O)[C@@H]1C [Rifampin] | -0.763
CC1=C(/C=C/C(C)=C/C=C/C(C)=C/C=C/C=C(C)/C=C/C=C(C)/C=C/C2=C(C)CCCC2(C)C)C(C)(C)CCC1 [Beta Carotene] | 0.72
CC[C@H]1OC(=O)[C@H](C)[C@@H](O[C@H]2C[C@@](C)(OC)[C@@H](O)[C@H](C)O2)[C@H](C)[C@@H](O[C@@H]2O[C@H](C)C[C@H](N(C)C)[C@H]2O)[C@](C)(O)C[C@@H](C)C(=O)[C@H](C)[C@@H](O)[C@]1(C)O [Erythromycin] | -0.159
O=C(c1cc(Cc2n[nH]c(=O)c3ccccc23)ccc1F)N1CCN(C(=O)C2CC2)CC1 | 0.133
O=C(O)CCCc1c[nH]c2ccccc12 [3-Indolebutyric acid (IBA)] | -0.514
O=C1c2ccccc2C(=O)C1c1ccccc1 [Phenindione] | 1.3
O=C(O)CCc1nc(-c2ccccc2)c(-c2ccccc2)o1 [Oxaprozin] | 0.666
c1ccc(CC2=NCCN2)cc1 [Tolazoline HCl] | -0.664
CC(C)(Oc1ccc(CCNC(=O)c2ccc(Cl)cc2)cc1)C(=O)O [Bezafibrate] | 0.00261
CC(C)C[C@H](NC(=O)[C@H](Cc1ccccc1)NC(=O)c1cnccn1)B(O)O [Bortezomib (PS-341)] | -0.125
COc1ccc(CC(C)NCC(O)c2ccc(O)c(NC=O)c2)cc1 (stereo not given) [Formoterol Hemifumarate] | -1.02
O=C1C(c2c(O)[nH]c3ccccc23)=Nc2ccccc21 [Indirubin] | -1.16
CS(=O)(=O)c1ccc(C(=O)Nc2ccc(Cl)c(-c3ccccn3)c2)c(Cl)c1 [Vismodegib (GDC-0449)] | 0.0607
CN1CCN(S(=O)(=O)c2ccc(-c3cnc(N)c(C(=O)Nc4cccnc4)n3)cc2)CC1 | 1.27
COc1ccc(-c2coc3cc(O)ccc3c2=O)cc1 [Formononetin] | -0.632
CNc1nc(-c2ccc3c(N)n[nH]c3c2)cc(N2C[C@@H](C(=O)NC3CCCCC3)CC[C@H]2C)n1 | 1.8

Random excerpt: 3 entries already listed, in no set order.
Compound | miR-132-3p level in NGN2-iNs
O=C(O)CCc1nc(-c2ccccc2)c(-c2ccccc2)o1 [Oxaprozin] | 0.666
CN1CCN(S(=O)(=O)c2ccc(-c3cnc(N)c(C(=O)Nc4cccnc4)n3)cc2)CC1 | 1.27
CC[C@H]1OC(=O)[C@H](C)[C@@H](O[C@H]2C[C@@](C)(OC)[C@@H](O)[C@H](C)O2)[C@H](C)[C@@H](O[C@@H]2O[C@H](C)C[C@H](N(C)C)[C@H]2O)[C@](C)(O)C[C@@H](C)C(=O)[C@H](C)[C@@H](O)[C@]1(C)O [Erythromycin] | -0.159

From the supplement of paper PMC10663445
